Measured values as given in paper PMC10108392, “Rimonabant-Based Compounds Bearing Hydrophobic Amino Acid Derivatives as Cannabinoid Receptor Subtype 1 Ligands” (ACS Medicinal Chemistry Letters, 2023).
The match of structure and compound is tentative.

By UniProt entry, the sequences of proteins in these tests, tags left out.
UniProt P20272, whole entry: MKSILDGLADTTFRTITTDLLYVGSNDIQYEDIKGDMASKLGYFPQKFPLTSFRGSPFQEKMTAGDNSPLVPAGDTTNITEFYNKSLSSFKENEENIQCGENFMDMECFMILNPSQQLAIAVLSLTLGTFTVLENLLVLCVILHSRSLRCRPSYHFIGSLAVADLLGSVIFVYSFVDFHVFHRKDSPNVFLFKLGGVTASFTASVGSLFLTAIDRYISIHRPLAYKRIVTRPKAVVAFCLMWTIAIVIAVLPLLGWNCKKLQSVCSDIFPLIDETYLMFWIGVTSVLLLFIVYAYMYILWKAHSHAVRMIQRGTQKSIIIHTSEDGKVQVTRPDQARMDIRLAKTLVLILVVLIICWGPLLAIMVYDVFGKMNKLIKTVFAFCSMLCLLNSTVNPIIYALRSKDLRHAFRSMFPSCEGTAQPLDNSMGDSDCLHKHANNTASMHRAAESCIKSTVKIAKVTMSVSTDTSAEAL

Assays:
[1] = target: CB1R (Rattus norvegicus, UniProt P20272); experiment: Ligand stimulated [35S]GTPγS binding assay in rat brain membranes; assay type: biochemical; conditions: basal [35S]GTPγS binding set as 100%, ± SEM
[2] = system: mice; experiment: Feeding test (food intake); assay type: in vivo, mouse; conditions: 10 mg/kg i.p., 1-h test, vs vehicle

Compound	[35S]GTPγS stimulation Emax [1] [%]	food intake [2]
Cc1c(C(=O)N[C@H](C(N)=O)C(C)(C)C)nn(-c2ccc(Cl)cc2Cl)c1-n1cccc1Cl	70 ± 7	slight reduction in food intake
Cc1c(C(=O)N[C@H](C(N)=O)C(C)C)nn(-c2ccc(Cl)cc2Cl)c1-n1cccc1Cl	60 ± 2.9	
